“And” between values parts separate entries of the source, which are not always exact repeats. Identical values can stand only once. This is one part of the list. These are further read-outs of the screen, such as a control signal, another cell line or another target. No call is given for them. The list favours compounds with an active or inconclusive main result.

The test can be described thus: qHTS assay for small molecule antagonists of retinoid X receptor alpha signaling (AID 588546). To be noted: HEK293T RXRa-UAS-bla, beta-lactamase ratio, antagonist mode; measured here: W530 green channel, cytotoxicity proxy. The text has this:
NIH Chemical Genomics Center [NCGC] U.S. Environmental Protection Agency [EPA] National Institutes of Environmental Health Sciences [NIEHS] National Toxicology Program [NTP] NCGC Assay Overview The Retinoid X receptor (RXR), a nuclear hormone receptor is expressed in liver, spleen, placenta, epidermis, central nervous system. These receptors are able to form homo and heterodimers with other nuclear receptors and due to this heterodimerizing ability, RXR functions as master regulators producing diverse physiological effects. Three subtypes of RXR exist; alpha, beta and gamma. Retinoid X receptor alpha (RXR-alpha) has potential roles in metabolic signaling pathways, skin alopecia, dermal cysts, cardiac development, insulin sensitization etc. Therefore screening environmental chemicals on RXR-alpha signaling can be used for the studies focused on such therapeutic applications.
NCGC Assay Protocol Summary Using a beta-lactamase reporter-gene under control of Retinoid X receptor--alpha (RXR-alpha) response element, a cell-based assay [GeneBLAzer (RXR-alpha -UAS-bla assay developed by Invitrogen] was used to measure RXR-alpha ligands signaling. GeneBLAzer RXR-alpha -UAS-bla HEK293T cells were used with assay medium containing 2% charcoal-stripped FBS. The assay was performed in clear bottom black Greiner 1536-well plates. Library compounds were measured for their ability to inhibit the reporter gene activity. Compounds were screened in a titration series in 1536-well format. The fluorescence intensity (405 nm excitation, 460/530 nm emission) was measured using an EnVision plate reader. Data was normalized relative to 9-cis-retinoic acid control (500 nM, 100%), and DMSO only wells (basal, 0%). Concentration-response titration points for each compound were fitted to the Hill equation yielding concentrations of half-maximal inhibition (IC50) and maximal response (efficacy) values. qHTS protocol for RXR-alpha beta-lactamase assay in antagonist mode [Step] [Parameter] [Value] [Description] 1. Reagent; 5 uL; 2500 cells/well 2. Incubation; 37 C for 4 hrs 3. Compounds; 23 nL; 0.59 nM to 92 uM 4. Controls (DMSO); 23 nL 5. Agonist (Stimulator); 1uL; 9-cis-retinoic acid at 500 nM and 100 nM final concentrations 6. Incubation; 37 C for 18 hrs 7. Detection reagent; 1 uL of CCF4-dye 8. Incubation; RT for 2 hrs 9. Detection; Fluorescence; Envision plate reader
In general terms: In qHTS, concentration-response curves come from the screen itself.
As to `COc1cc(-c2ccc(N=C=O)c(OC)c2)ccc1N=C=O`, the max response is -37.9%. Consider `Oc1ccc(O)cc1`, for which the max response was 35.8%. On to `Cc1cc(C)c(N)c(Cl)c1`, for which the max response was determined as 3.31%. With `N[C@@H](Cc1cc(I)c(Oc2ccc(O)c(I)c2)c(I)c1)C(=O)O` the figure was 5.24%; with `CC1CCCO1` (stereo not given), -4.71%; with `C/C=C/C=C/C=O`, 0.0091%. With `CCCOC(=O)c1cc(O)c(O)c(O)c1` the figure was 1.18%; with `CC[C@H](C)C1O[C@]2(C=C[C@@H]1C)C[C@@H]1C[C@@H](C/C=C(\C)[C@@H](O[C@H]3C[C@H](OC)[C@@H](O[C@H]4C[C@H](OC)[C@H](NC(C)=O)[C@H](C)O4)[C@H](C)O3)[C@@H](C)/C=C/C=C3\CO[C@@H]4[C@H](O)C(C)=C[C@@H](C(=O)O1)[C@]34O)O2` (stereo not given in full), -24.9%; with `Cc1ccc(C)c([N+](=O)[O-])c1`, -15.6%. In the case of `C[C@]12CC[C@@H]3c4ccc(O)cc4CC[C@H]3[C@@H]1CC[C@H]2O`, the max response is -12.4%.

Take `Nc1ncn([C@@H]2O[C@H](CO)[C@@H](O)[C@H]2O)c(=O)n1`: the max response is -10.8%. With `CCCCOCCOCCOC(C)=O` the figure was -24.2%; with `CC1=NN(c2ccccc2)C(=O)C1`, -0.337%; with `O=c1cc(-c2ccc(O)cc2)oc2cc(O)cc(O)c12`, 32.4% and 36.5%. Regarding `CO/N=C1\C[C@]2(C[C@@H]3C[C@@H](C/C=C(\C)C[C@@H](C)/C=C/C=C4\CO[C@@H]5[C@H](O)C(C)=C[C@@H](C(=O)O3)[C@]45O)O2)O[C@H](/C(C)=C/C(C)C)[C@H]1C`, the max response was -45.2%. Consider `N[C@@H](Cc1cc(I)c(Oc2cc(I)c(O)c(I)c2)c(I)c1)C(=O)O`, for which the max response was -12.8%. As for `CC(C)(C)[C@H](O)[C@H](Cc1ccc(Cl)cc1)n1cncn1`, the max response is -1.84%. For the compound `CCCCCCCCCCCC[N+](C)(C)[O-]`, the max response is 1.84%. The value for `Cc1nn(C)c(Oc2ccccc2)c1/C=N/OCc1ccc(C(=O)OC(C)(C)C)cc1` was -0.56%. As for `C=C[C@@]1(C)CC(=O)[C@]2(O)[C@@]3(C)[C@@H](O)CCC(C)(C)[C@@H]3[C@H](O)[C@H](OC(C)=O)[C@@]2(C)O1`, the max response is -13.5%.

As to `CCCCCCCCCCCCOCC1CO1` (stereo not given), the max response was -15.6%. The value for `CC(CN1c2ccccc2Sc2ccccc21)N(C)C` (stereo not given) was -5.08%; that for `CCOC(=O)C(C)C(C)=O` (stereo not given) was -8.5%; that for `CCOC(=O)C1=NN(c2ccc(Cl)cc2Cl)C(C)(C(=O)OCC)C1` (stereo not given) was -15.7%. The value for `CCC(C)Nc1ccc(NC(C)CC)cc1` (stereo not given) was -0.59%. Regarding `O=c1c(O)c(-c2ccc(O)cc2)oc2cc(O)cc(O)c12`, the max response is 28.3% and 14.8%.

Consider `CC/C=C/C/C=C/C/C=C/CCCCCCCC(=O)OCC`, for which the max response was determined as 46.5%. In the case of `C=C(C)C(=O)OCC[N+](C)(C)C`, the max response is -0.111%. Take `CCN(CC)C(=S)SSC(=S)N(CC)CC`: the max response is -37.2%. Take `C=CC(=O)OCCOCCOC(=O)C=C`: the max response came out at 4.76%. On to `O=C(OCC(COC(=O)c1ccccc1)(COC(=O)c1ccccc1)COC(=O)c1ccccc1)c1ccccc1`, for which the max response was -24.3%.

For `Oc1ccccc1O`, the max response is -4.77%. Regarding `N=C(N)c1ccc(OCCCCCOc2ccc(C(=N)N)cc2)cc1`, the max response was 5.27% and 5.77%. As for `O=C1c2ccccc2C(=O)C1c1ccc2ccccc2n1`, the max response was 6.14%. Take `CC(C)NCC(O)COc1cccc2ccccc12` (stereo not given): the max response is -3.26%.

Take `Nc1ccc(N)c2c1C(=O)c1c(N)ccc(N)c1C2=O`: the max response is -19.5%. With `CN(C)c1ccc(C(=N)c2ccc(N(C)C)cc2)cc1` the figure was 18.9%. With `COc1ccc2c(c1)c(CC(=O)O)c(C)n2C(=O)c1ccc(Cl)cc1` the figure was 61.5% and 38.7%; with `Nc1nc(N)c2nc(CNc3ccc(C(=O)NC(CCC(=O)O)C(=O)O)cc3)cnc2n1` (stereo not given), 34%. With `Cc1ccc(-c2cc(C(F)(F)F)nn2-c2ccc(S(N)(=O)=O)cc2)cc1` the figure was 26.6%.
